Measurements published in paper PMC7515718.
Results are given in words; binding and its absence hold for the method and conditions named. In cells and extracts the contact can be indirect. Some results given as binding are weak or reduced against the parent protein; the word gives no strength. For some assays here: Where a sequence is shown, tags or fusion partners need not be part of it.

Amino acid sequences for entries named in this document (tags omitted).
UniProt O14503: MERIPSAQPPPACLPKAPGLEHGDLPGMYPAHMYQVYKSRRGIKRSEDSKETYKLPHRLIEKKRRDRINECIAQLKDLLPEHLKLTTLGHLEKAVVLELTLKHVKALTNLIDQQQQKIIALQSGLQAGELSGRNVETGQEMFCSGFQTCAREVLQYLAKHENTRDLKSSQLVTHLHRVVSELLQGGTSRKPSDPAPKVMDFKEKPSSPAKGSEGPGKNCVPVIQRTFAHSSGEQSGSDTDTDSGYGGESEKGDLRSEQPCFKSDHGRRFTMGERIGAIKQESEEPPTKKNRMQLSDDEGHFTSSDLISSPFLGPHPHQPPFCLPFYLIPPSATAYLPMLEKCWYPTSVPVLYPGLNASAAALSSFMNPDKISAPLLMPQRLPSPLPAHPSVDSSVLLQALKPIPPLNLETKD

T1: FLAG tagged CTCF (UniProt P49711)
T1 sequence: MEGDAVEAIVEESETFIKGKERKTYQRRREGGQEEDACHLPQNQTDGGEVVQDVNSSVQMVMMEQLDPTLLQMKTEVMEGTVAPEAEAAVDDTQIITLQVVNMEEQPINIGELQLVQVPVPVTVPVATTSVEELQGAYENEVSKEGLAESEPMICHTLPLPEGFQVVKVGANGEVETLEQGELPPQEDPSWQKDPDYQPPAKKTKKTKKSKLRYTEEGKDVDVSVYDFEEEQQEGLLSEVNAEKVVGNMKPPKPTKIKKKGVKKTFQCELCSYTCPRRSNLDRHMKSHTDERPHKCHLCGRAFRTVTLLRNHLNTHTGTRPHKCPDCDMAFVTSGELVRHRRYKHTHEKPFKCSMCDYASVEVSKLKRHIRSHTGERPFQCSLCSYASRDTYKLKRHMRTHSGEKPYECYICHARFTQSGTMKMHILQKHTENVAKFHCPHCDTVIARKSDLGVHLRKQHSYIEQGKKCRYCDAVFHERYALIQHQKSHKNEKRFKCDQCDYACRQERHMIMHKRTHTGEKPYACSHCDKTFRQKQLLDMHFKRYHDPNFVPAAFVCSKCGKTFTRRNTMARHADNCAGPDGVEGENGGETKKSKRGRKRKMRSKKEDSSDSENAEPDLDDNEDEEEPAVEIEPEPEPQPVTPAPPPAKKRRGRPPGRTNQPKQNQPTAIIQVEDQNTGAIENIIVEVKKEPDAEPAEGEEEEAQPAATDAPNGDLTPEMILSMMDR

B1: CTCF (protein, UniProt P49711 1-727)
chain: T1 sequence

Assays:
FLAG tagged CTCF = molecular target: T1, FLAG tagged CTCF; assay: co-IP; nuclear extract of HeLa-S3 cells overexpressing FLAG tagged CTCF incubated with Flag M2 beads at 4°C overnight; three washes with IP wash buffer (20 mM Tris pH 7.9, 0.1 M KCl, 5 mM MgCl2, 10% glycerol, 0.1% Tween-20); western blot
BIOTIN tagged BHLHE40 = BIOTIN tagged BHLHE40 (UniProt O14503); assay: co-IP; BIOTIN IP: soluble nuclear extract of HeLa-S3 cells overexpressing BIOTIN tagged BHLHE40 incubated with Dynabeads M-280 Streptavidin at 4°C overnight; three washes with IP wash buffer (20 mM Tris pH 7.9, 0.1 M KCl, 5 mM MgCl2, 10% glycerol, 0.1% Tween-20); western blot

Row | binding (FLAG tagged CTCF) | binding (BIOTIN tagged BHLHE40) | Molecule
1 | binds |  | BHLHE40 (from UniProt O14503 1-412)
2 |  | binds | B1
